Measurements reported in publication PMC10425522.
These are yes or no findings as the source states them, for the method shown. In cells and extracts the contact can be indirect. Some entries that bind do so weakly or less than the wild type. For some assays here: Sequences can lack the tags named with a protein.

Protein sequences, listed by entry. Tags and fused reporters are not part of them.
UniProt Q9NYY3: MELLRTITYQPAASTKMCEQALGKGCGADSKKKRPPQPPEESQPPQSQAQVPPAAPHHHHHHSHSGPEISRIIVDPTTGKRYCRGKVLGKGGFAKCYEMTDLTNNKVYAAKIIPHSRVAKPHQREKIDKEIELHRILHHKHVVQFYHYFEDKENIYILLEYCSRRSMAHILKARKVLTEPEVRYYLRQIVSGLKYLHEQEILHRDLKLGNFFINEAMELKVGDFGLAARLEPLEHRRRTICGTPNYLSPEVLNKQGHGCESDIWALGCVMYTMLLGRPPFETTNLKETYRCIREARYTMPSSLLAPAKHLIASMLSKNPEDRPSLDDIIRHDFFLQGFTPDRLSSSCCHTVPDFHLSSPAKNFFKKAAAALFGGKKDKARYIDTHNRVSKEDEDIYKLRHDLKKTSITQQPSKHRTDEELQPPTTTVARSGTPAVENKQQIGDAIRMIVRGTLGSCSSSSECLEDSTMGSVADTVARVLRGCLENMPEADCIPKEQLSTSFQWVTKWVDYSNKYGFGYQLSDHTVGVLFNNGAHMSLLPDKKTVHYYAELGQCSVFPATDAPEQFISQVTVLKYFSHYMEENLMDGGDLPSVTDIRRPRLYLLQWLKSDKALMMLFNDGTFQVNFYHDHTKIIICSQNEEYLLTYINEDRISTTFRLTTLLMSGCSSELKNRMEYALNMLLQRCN
UniProt Q9R012: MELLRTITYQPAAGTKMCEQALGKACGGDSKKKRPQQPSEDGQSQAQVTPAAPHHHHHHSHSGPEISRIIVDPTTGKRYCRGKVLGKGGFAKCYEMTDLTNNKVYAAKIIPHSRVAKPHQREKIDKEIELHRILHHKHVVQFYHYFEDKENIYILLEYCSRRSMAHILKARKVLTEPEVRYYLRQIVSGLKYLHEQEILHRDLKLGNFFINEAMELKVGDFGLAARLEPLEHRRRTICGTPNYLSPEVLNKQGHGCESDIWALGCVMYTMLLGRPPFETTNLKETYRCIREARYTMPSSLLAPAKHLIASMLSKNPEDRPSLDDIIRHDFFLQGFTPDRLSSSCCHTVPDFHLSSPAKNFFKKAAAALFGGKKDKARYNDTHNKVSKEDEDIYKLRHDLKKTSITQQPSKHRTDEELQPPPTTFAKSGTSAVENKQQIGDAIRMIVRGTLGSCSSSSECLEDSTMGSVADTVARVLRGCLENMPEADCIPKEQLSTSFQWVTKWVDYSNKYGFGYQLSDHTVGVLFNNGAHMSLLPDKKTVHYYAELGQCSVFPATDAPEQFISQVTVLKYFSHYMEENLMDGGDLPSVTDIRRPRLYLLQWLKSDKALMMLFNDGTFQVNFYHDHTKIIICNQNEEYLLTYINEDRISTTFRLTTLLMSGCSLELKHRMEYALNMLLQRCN

T1: Nrf2 (endogenous, NRK52E cells) (rat (endogenous in NRK52E)) (UniProt O54968)
T1 sequence: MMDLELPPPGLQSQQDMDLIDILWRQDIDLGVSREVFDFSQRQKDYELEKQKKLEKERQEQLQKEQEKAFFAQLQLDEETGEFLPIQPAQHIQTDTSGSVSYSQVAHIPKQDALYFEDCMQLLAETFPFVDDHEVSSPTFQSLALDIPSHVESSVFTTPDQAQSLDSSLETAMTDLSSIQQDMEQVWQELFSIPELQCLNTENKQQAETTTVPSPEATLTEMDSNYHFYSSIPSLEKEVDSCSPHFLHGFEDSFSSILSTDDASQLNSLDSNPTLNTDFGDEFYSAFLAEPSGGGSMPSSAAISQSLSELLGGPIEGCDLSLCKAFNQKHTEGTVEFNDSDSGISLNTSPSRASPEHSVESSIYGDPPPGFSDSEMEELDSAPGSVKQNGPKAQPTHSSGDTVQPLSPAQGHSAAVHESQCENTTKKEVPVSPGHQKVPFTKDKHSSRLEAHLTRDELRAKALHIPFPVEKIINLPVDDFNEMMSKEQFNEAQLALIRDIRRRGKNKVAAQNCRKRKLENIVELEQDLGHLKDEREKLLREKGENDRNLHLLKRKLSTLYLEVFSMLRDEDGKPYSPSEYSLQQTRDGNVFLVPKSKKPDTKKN

T2: Nrf2 phosphorylated at Ser40 (endogenous, cisplatin-treated NRK52E cells) (rat (endogenous in NRK52E)) (UniProt O54968)
T2 sequence (chain, phosphoserine at 40): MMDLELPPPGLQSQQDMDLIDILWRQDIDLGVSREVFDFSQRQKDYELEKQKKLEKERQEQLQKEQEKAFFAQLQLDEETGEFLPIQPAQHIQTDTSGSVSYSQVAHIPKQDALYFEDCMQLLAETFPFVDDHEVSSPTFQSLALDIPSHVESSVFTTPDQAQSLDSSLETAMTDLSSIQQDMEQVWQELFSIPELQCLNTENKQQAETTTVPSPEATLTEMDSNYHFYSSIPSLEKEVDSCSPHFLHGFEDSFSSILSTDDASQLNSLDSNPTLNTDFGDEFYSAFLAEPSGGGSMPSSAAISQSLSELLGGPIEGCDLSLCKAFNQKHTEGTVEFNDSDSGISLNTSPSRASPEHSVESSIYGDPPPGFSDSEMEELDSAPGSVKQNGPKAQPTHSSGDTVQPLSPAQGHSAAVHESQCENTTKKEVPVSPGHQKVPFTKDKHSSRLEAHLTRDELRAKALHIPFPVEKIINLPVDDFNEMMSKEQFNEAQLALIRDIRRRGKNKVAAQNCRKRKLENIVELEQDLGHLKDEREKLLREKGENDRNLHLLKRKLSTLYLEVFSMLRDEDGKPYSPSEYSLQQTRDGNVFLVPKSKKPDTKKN


Columns and labels:
[1] = target: T1, Nrf2 (endogenous, NRK52E cells) (rat (endogenous in NRK52E)); test: co-IP; endogenous proteins of NRK52E cells grown 48 h with or without 30 μM cisplatin; immunoprecipitation with anti-Nrf2 antibody, protein A/G agarose, 4 °C; immunoblot for Plk2, Nrf2, p-Nrf2 (S40), p21^cip1
[2] = target: T2, Nrf2 phosphorylated at Ser40 (endogenous, cisplatin-treated NRK52E cells) (rat (endogenous in NRK52E)); test: as above
Flag-tagged Plk2 = Flag-tagged Plk2 (UniProt Q9NYY3); test: co-IP; Flag-tagged Plk2 and/or Myc-tagged Nrf2 expressed in HEK293 cells; immunoprecipitation with anti-Flag antibody, protein A/G agarose, 4 °C; immunoblot with anti-Plk2 and anti-Nrf2

Molecule	binding [1]	binding [2]	binding (Flag-tagged Plk2)
Plk2 (endogenous, NRK52E cells) (from UniProt Q9R012 1-682) (enzyme)	binds	binds	
Myc-tagged Nrf2 (protein, UniProt Q16236 1-605) MMDLELPPPGLPSQQDMDLIDILWRQDIDLGVSREVFDFSQRRKEYELEKQKKLEKERQEQLQKEQEKAFFAQLQLDEETGEFLPIQPAQHIQSETSGSANYSQVAHIPKSDALYFDDCMQLLAQTFPFVDDNEVSSATFQSLVPDIPGHIESPVFIATNQAQSPETSVAQVAPVDLDGMQQDIEQVWEELLSIPELQCLNIENDKLVETTMVPSPEAKLTEVDNYHFYSSIPSMEKEVGNCSPHFLNAFEDSFSSILSTEDPNQLTVNSLNSDATVNTDFGDEFYSAFIAEPSISNSMPSPATLSHSLSELLNGPIDVSDLSLCKAFNQNHPESTAEFNDSDSGISLNTSPSVASPEHSVESSSYGDTLLGLSDSEVEELDSAPGSVKQNGPKTPVHSSGDMVQPLSPSQGQSTHVHDAQCENTPEKELPVSPGHRKTPFTKDKHSSRLEAHLTRDELRAKALHIPFPVEKIINLPVVDFNEMMSKEQFNEAQLALIRDIRRRGKNKVAAQNCRKRKLENIVELEQDLDHLKDEKEKLLKEKGENDKSLHLLKKQLSTLYLEVFSMLRDEDGKPYSPSEYSLQQTRDGNVFLVPKSKKPDVKKN			binds
p21^cip1 (endogenous, NRK52E cells) (protein, UniProt Q64315 1-164) MSDPGDVRPVPHRSKVCRRLFGPVDSEQLSRDCDALMASCLQEARERWNFDFATETPLEGNYVWERVRSPGLPKIYLSPGSRRRDDLGGDKRPSTSSALLQGPGPAPEDHVALSLSCTLVSHAPERPEDSPGGTGTSQGRKRRQTSLTDFYHSKRRLVFCKRKP	binds	binds	
